According to paper doi:10.1101/2025.10.16.682774 (bioRxiv, 2025):
Substitutions are numbered along the chain they refer to. Names may count otherwise. These are yes or no findings as the source states them, for the method shown. For some of these results: Binding seen in cells or lysates may run through a third protein. Some binding calls cover weakened binding; strength is not graded here. For some of these results: Where a sequence is shown, tags or fusion partners need not be part of it. Each block holds one molecule with its values, some of them ahead of it.

By UniProt entry, the sequences of proteins in these tests, tags left out. Where a name states a change or a piece, a line headed by the entry shows the natural chain unless it says otherwise. Residues count along the entry.
UniProt O15027, 1-1101: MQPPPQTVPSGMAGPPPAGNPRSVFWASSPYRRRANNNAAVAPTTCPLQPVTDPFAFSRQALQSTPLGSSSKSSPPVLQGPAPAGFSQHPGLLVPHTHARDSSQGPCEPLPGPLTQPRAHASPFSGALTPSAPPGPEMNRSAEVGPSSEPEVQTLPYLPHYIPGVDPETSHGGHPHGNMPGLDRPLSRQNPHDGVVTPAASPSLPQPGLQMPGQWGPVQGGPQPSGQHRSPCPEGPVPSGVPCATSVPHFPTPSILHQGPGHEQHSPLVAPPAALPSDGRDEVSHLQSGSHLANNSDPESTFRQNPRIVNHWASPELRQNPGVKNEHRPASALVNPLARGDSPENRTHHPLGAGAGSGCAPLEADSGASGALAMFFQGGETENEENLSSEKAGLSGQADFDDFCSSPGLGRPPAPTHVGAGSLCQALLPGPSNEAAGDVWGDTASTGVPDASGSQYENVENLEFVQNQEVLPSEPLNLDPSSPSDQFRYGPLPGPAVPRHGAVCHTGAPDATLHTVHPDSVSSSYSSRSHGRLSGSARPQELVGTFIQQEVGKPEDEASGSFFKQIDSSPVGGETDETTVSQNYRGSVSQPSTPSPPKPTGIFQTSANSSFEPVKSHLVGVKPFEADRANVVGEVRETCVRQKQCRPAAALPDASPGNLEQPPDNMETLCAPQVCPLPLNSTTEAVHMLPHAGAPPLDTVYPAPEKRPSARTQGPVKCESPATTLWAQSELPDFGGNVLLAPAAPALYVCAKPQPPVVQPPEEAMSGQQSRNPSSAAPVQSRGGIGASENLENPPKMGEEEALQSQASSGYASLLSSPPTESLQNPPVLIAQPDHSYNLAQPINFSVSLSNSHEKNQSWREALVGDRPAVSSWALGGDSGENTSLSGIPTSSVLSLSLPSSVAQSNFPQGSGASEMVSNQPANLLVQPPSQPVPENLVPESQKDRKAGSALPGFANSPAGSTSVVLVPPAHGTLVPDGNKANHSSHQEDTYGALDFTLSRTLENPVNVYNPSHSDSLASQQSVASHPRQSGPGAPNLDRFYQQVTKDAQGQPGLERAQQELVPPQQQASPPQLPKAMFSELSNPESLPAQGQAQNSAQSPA
UniProt O15027, 511-1100: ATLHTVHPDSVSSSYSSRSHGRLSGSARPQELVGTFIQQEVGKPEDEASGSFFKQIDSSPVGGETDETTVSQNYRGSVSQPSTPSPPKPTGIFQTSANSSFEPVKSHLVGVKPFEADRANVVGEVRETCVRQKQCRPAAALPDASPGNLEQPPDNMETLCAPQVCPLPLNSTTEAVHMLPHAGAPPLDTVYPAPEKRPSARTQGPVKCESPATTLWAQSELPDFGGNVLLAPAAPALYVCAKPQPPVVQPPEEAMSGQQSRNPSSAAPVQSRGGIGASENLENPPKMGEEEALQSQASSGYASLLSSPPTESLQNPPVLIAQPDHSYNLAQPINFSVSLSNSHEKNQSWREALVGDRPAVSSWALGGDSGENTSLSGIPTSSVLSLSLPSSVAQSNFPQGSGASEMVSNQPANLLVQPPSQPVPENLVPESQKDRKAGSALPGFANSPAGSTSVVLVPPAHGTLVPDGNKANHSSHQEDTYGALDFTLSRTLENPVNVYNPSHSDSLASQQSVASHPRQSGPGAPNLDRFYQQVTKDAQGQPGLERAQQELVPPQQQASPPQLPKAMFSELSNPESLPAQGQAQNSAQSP
UniProt O15027, 1101-1890: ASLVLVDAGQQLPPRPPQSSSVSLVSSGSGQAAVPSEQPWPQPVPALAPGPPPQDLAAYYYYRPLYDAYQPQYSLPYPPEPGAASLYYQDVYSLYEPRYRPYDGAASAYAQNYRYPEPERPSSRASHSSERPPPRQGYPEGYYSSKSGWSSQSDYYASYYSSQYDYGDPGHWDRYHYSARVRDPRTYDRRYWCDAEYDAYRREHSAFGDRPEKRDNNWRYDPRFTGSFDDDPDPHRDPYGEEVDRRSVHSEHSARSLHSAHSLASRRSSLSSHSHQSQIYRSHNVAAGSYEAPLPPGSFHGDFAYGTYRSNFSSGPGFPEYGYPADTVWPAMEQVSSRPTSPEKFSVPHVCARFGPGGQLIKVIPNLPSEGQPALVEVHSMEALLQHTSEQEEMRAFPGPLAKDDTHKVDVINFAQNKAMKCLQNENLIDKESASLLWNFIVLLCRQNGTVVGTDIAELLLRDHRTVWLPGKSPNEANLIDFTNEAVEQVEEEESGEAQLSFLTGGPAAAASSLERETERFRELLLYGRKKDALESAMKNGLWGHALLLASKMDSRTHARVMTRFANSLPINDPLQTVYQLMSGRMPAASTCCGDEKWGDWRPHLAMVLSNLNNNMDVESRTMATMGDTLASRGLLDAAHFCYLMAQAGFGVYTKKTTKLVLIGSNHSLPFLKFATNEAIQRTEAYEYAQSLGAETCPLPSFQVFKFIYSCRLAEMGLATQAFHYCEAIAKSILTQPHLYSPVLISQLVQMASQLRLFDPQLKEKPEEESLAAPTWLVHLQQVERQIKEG
UniProt O15027, 1890-2357: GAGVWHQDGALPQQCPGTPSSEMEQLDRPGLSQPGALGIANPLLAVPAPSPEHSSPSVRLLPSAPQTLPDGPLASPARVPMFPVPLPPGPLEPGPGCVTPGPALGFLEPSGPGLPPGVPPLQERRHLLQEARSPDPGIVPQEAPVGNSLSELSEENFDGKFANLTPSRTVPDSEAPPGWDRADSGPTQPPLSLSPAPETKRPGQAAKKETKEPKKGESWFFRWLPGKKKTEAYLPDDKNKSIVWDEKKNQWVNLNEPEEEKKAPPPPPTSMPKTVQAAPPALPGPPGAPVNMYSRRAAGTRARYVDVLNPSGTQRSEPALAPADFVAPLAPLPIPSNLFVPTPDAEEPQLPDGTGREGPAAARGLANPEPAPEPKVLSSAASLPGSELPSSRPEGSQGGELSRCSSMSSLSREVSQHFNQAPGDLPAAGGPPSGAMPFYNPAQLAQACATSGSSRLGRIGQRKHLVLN

Legend:
[1] = molecular target: T1, p115(1-655)-HA-MAO (human) (UniProt O60763); assay: mitochondrial relocation assay
T1 sequence: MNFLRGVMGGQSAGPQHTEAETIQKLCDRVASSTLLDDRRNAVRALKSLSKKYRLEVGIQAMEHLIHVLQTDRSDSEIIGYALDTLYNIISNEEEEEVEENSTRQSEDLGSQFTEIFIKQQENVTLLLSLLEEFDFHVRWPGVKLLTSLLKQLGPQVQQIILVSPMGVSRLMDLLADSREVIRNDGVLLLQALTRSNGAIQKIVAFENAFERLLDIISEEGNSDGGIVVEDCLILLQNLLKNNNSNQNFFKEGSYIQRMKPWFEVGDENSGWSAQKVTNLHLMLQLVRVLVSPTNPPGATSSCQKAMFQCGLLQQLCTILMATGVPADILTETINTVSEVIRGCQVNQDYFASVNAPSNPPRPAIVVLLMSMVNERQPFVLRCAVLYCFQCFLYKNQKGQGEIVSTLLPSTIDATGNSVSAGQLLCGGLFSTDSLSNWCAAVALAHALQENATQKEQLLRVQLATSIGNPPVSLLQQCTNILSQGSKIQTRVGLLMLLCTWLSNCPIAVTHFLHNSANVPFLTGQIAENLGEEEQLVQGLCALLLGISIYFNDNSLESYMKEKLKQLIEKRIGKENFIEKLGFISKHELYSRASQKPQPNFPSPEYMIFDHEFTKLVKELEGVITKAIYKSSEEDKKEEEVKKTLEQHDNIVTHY

[2] = molecular target: Sec16A(650-776)-GFP (human) (UniProt O15027); assay: pull-down
[3] = molecular target: Sec16A(650-776)-GFP (human) (UniProt O15027); assay: co-IP
[4] = molecular target: mitochondrial form of Sec16A(650-776) (human) (UniProt O15027); assay: mitochondrial relocation assay

Molecule: Sec16A(511-1100) fused to GFP (from UniProt O15027 511-1100) (domain or fragment)
binding [1]: binds

Molecule: Sec16A(1101-1890) fused to GFP (from UniProt O15027 1101-1890) (domain or fragment)
binding [1]: no binding

B1: flag-tagged p115 head domain (1-655) Q462D (domain or fragment, UniProt O60763 1-655)
chain: T1 sequence with Q462D
binding [2]: no binding

B3: endogenous p115 (HeLa) (protein, UniProt O60763 1-962)
chain: MNFLRGVMGGQSAGPQHTEAETIQKLCDRVASSTLLDDRRNAVRALKSLSKKYRLEVGIQAMEHLIHVLQTDRSDSEIIGYALDTLYNIISNEEEEEVEENSTRQSEDLGSQFTEIFIKQQENVTLLLSLLEEFDFHVRWPGVKLLTSLLKQLGPQVQQIILVSPMGVSRLMDLLADSREVIRNDGVLLLQALTRSNGAIQKIVAFENAFERLLDIISEEGNSDGGIVVEDCLILLQNLLKNNNSNQNFFKEGSYIQRMKPWFEVGDENSGWSAQKVTNLHLMLQLVRVLVSPTNPPGATSSCQKAMFQCGLLQQLCTILMATGVPADILTETINTVSEVIRGCQVNQDYFASVNAPSNPPRPAIVVLLMSMVNERQPFVLRCAVLYCFQCFLYKNQKGQGEIVSTLLPSTIDATGNSVSAGQLLCGGLFSTDSLSNWCAAVALAHALQENATQKEQLLRVQLATSIGNPPVSLLQQCTNILSQGSKIQTRVGLLMLLCTWLSNCPIAVTHFLHNSANVPFLTGQIAENLGEEEQLVQGLCALLLGISIYFNDNSLESYMKEKLKQLIEKRIGKENFIEKLGFISKHELYSRASQKPQPNFPSPEYMIFDHEFTKLVKELEGVITKAIYKSSEEDKKEEEVKKTLEQHDNIVTHYKNMIREQDLQLEELRQQVSTLKCQNEQLQTAVTQQVSQIQQHKDQYNLLKIQLGKDNQHQGSYSEGAQMNGIQPEEIGRLREEIEELKRNQELLQSQLTEKDSMIENMKSSQTSGTNEQSSAIVSARDSEQVAELKQELATLKSQLNSQSVEITKLQTEKQELLQKTEAFAKSVEVQGETETIIATKTTDVEGRLSALLQETKELKNEIKALSEERTAIKEQLDSSNSTIAILQTEKDKLELEITDSKKEQDDLLVLLADQDQKILSLKNKLKDLGHPVEEEDELESGDQEDEDDESEDPGKDLDHI
binding [4]: binds

Continued, values first:

binding [1]: binds
Molecule: Sec16A(1-1101) fused to GFP (from UniProt O15027 1-1101) (domain or fragment)

binding [1]: no binding
Molecule: Sec16A(1890-2357) fused to GFP (from UniProt O15027 1890-2357) (domain or fragment)

binding [3]: binds
B2: endogenous p115 (HEK293T) (protein, UniProt O60763 1-962)
chain: B3 chain
